From PMC4386032
Numbering of substitutions follows the chain as printed. No constants are given. Whether binding was seen depends on the method and setting. In cells and extracts the contact can be indirect. Some results given as binding are weak or reduced against the parent protein; the word gives no strength.

B1: Vps1-VN (Vps1 with the N-terminal half of Venus) (protein, UniProt P21576 1-704)
chain: MDEHLISTINKLQDALAPLGGGSQSPIDLPQITVVGSQSSGKSSVLENIVGRDFLPRGTGIVTRRPLVLQLINRRPKKSEHAKVNQTANELIDLNINDDDKKKDESGKHQNEGQSEDNKEEWGEFLHLPGKKFYNFDEIRKEIVKETDKVTGANSGISSVPINLRIYSPHVLTLTLVDLPGLTKVPVGDQPPDIERQIKDMLLKYISKPNAIILSVNAANTDLANSDGLKLAREVDPEGTRTIGVLTKVDLMDQGTDVIDILAGRVIPLRYGYIPVINRGQKDIEHKKTIREALENERKFFENHPSYSSKAHYCGTPYLAKKLNSILLHHIRQTLPEIKAKIEATLKKYQNELINLGPETMDSASSVVLSMITDFSNEYAGILDGEAKELSSQELSGGARISYVFHETFKNGVDSLDPFDQIKDSDIRTIMYNSSGSAPSLFVGTEAFEVLVKQQIRRFEEPSLRLVTLVFDELVRMLKQIISQPKYSRYPALREAISNQFIQFLKDATIPTNEFVVDIIKAEQTYINTAHPDLLKGSQAMVMVEEKLHPRQVAVDPKTGKPLPTQPSSSKAPVMEEKSGFFGGFFSTKNKKKLAALESPPPVLKATGQMTERETMETEVIKLLISSYFSIVKRTIADIIPKALMLKLIVKSKTDIQKVLLEKLYGKQDIEELTKENDITIQRRKECKKMVEILRNASQIVSSV
B2: Vps1 RR-EE-VN (Vps1 RR457,458EE with the N-terminal half of Venus) (protein, UniProt P21576 1-704)
chain: B1 chain with R457E, R458E

Molecular target: Rvs167-VC (amphiphysin Rvs167 with the C-terminal half of Venus) (yeast (budding yeast)) (UniProt P39743)
Assay: split reporter; BiFC in live yeast: VN on Vps1 or Vps1 RR-EE, VC on Rvs167, strains crossed for co-expression; fluorescence microscopy

Row | Binder | binding
1 | B1 | binds
2 | B2 | binds
